Data as given in PubChem BioAssay AID1159584 (Peter MacCallum Cancer Centre, 2016).
Shown is a random part of about 18,000 reagents tested. Further read-outs or replicates are left out here. Not given: the amount of reagent, the time to read-out.

- Assay: 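Genes whose loss is lethal only together with E-cadherin loss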 (primary screen)
- Cells: human MCF10A breast epithelial cells, parental and CDH1-null
- Reagent: siRNA against human genes
- Measurement: 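ATP luminescence (CellTiter-Glo) viability per line relative to mean mock wells over all plates, and the ratio of CDH1-null to parental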
- Reading the numbers: CDH1-null / parental viability ratio: higher = CDH1-null cells survive relatively better than parental

gene symbol | CDH1-null / parental viability ratio
LANCL2 (GeneID 55915) | 1.07
NUP50 (GeneID 10762) | 0.79
ABT1 (GeneID 29777) | 0.89
KHDRBS3 (GeneID 10656) | 0.92
GGA1 (GeneID 26088) | 1.39
MMD2 (GeneID 221938) | 0.92
DNPH1 (GeneID 10591) | 0.98
RSPO4 (GeneID 343637) | 0.92
ZNF420 (GeneID 147923) | 0.89
RFC2 (GeneID 5982) | 1.15
MTMR14 (GeneID 64419) | 1.51
APCS (GeneID 325) | 1.12
LINC02910 (GeneID 284756) | 0.99
NMI (GeneID 9111) | 0.97
HOXD8 (GeneID 3234) | 0.96
VTI1A (GeneID 143187) | 1.31
CTPS2 (GeneID 56474) | 0.91
CCNO (GeneID 10309) | 1
ACAT2 (GeneID 39) | 1
SLITRK6 (GeneID 84189) | 0.88
KCNE4 (GeneID 23704) | 1.12
TMEM174 (GeneID 134288) | 0.85
LYPD2 (GeneID 137797) | 1.14
RNF212 (GeneID 285498) | 0.88
NR2F1 (GeneID 7025) | 1.04
CENPV (GeneID 201161) | 1.09
SAFB (GeneID 6294) | 1.68
CNRIP1 (GeneID 25927) | 1.09

Ordered by “CDH1-null / parental viability ratio” (lowest first): some entries from above
gene symbol | CDH1-null / parental viability ratio
NMI (GeneID 9111) | 0.97
LINC02910 (GeneID 284756) | 0.99
APCS (GeneID 325) | 1.12
MTMR14 (GeneID 64419) | 1.51
